# Measurements: publication PMC7862700
# Only a part is listed here, and it is no random draw. For some assays here: At the low end of the ranking the order means little. Some of the results follow. For some assays here: The exact form of the protein is not confirmed.
# Molecular target: T1, ETS1 (UniProt P14921)
# T1 sequence: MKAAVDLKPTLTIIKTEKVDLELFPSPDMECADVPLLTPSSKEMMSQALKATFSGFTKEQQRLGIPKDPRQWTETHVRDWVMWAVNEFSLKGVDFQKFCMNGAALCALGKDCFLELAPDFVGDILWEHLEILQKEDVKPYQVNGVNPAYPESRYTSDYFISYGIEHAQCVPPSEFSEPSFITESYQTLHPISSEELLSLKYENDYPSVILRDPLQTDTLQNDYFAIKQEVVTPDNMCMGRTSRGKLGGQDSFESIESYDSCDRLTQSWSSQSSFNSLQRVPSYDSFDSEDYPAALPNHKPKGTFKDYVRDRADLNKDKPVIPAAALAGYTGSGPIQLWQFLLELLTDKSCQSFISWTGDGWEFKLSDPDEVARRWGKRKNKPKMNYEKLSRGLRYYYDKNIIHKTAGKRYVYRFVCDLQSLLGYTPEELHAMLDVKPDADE
# Assay: DAPPL (digital affinity profiling via proximity ligation, sequencing)
# Conditions: 10 mM Tris-HCl pH 7.5, 50 mM NaCl, 1 mM DTT, 4% glycerol, room temperature, 30 min; GST-TFs on glutathione beads, 16-mer random dsDNA library, 0.1% …; high values mean tight binding; double strand, one strand shown; scale: fold enrichment (6-mer frequency, TF over GST control)
row,Sequence,binding signal
1,AACACC,1.03
2,CACTAG,0.944
3,ACAAAG,1.03
4,CTAGAC,0.958
5,CTACTA,1.36
6,CGATCA,1.13
7,AACTTG,1.21
8,CCTTCT,1.59
9,ATTTAA,1.2
10,ACCTTA,1.24
11,GCTTGT,1.08
12,CCATCA,1.16
13,ACTAGA,0.958
14,TCATGA,1.01
15,AAAACG,1.2
16,CTAACT,1.27
17,TTATGG,1.33
18,TGTGGC,1.04
19,TTCACG,1.44
20,GTATAC,1.28

row,Sequence,binding signal
1,CACATG,1.12
2,TTCGAG,1.39
3,AAGCAA,1.05
4,CCAACT,1.31
5,TTATCC,1.41
6,GAAACG,1.27
7,CCAAGC,0.97
8,ACTCAT,1.24
9,AAATAA,1.31
10,TACGGT,0.947
11,TAAACT,1.19
12,GCTGCA,1.04
13,AACTAT,1.43
14,GTACGC,0.978
15,ATGAGG,0.944
16,TTCAGG,1.15
17,TCAATC,1.04
18,CTTGTA,1.38
19,GATCAA,0.97
20,CCGCCA,1.32

# Molecular target: T2, SPDEF (UniProt O95238)
# T2 sequence: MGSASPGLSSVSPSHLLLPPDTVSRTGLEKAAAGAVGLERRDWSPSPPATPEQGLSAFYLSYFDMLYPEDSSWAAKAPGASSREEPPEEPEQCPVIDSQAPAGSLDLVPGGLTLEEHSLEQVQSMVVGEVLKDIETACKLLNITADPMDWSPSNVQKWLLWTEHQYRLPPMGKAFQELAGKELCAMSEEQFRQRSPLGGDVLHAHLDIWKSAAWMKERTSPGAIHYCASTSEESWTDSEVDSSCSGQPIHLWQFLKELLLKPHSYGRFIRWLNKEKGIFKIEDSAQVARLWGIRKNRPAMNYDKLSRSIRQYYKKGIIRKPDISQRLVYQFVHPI
# Assay: as above
# Conditions: 10 mM Tris-HCl pH 7.5, 50 mM NaCl, 1 mM DTT, 4% glycerol, room temperature, 30 min; GST-TFs on glutathione beads, 16-mer random dsDNA library, 0.1% …; high values mean tight binding; double strand, one strand shown; scale: fold enrichment (6-mer frequency, TF over GST control)
row,Sequence,binding signal
1,AACACC,1.15
2,CACTAG,0.973
3,ACAAAG,0.977
4,CTAGAC,0.925
5,CTACTA,1.28
6,CGATCA,0.921
7,AACTTG,1.14
8,CCTTCT,1.84
9,ATTTAA,1.24
10,ACCTTA,1.3
11,GCTTGT,0.992
12,CCATCA,1.12
13,ACTAGA,0.905
14,TCATGA,0.947
15,AAAACG,1.2
16,CTAACT,1.24
17,TTATGG,1.26
18,TGTGGC,0.993
19,TTCACG,1.34
20,GTATAC,1.3

row,Sequence,binding signal
1,CACATG,0.935
2,TTCGAG,1.19
3,AAGCAA,0.946
4,CCAACT,1.27
5,TTATCC,1.76
6,GAAACG,1.23
7,CCAAGC,0.982
8,ACTCAT,1.24
9,AAATAA,1.25
10,TACGGT,1.1
11,TAAACT,1.01
12,GCTGCA,0.903
13,AACTAT,1.42
14,GTACGC,0.98
15,ATGAGG,0.903
16,TTCAGG,1.25
17,TCAATC,0.923
18,CTTGTA,1.45
19,GATCAA,1.05
20,CCGCCA,1.29
